Source: US20070275877A1, “Methods for Treating or Ameliorating Ghrelin-Associated Diseases and Disorders” (AMYLIN PHARMACEUTICALS, INC., priority 2003, published 2007)
At least one compound was matched to its structure with a doubt left.

Test system: total plasma ghrelin
Test: Effect of rat amylin on ghrelin levels with and without pentagastrin in fasted rats (Example 2)
Format: in vivo
Conditions: 125 μg/kg pentagastrin s.c. at 0 min, 30 μg/kg rat amylin s.c. at 20 min
Experimental: FIGS. 2A and 2B depict graphs of the effect of rat amylin on ghrelin levels in an animal model in the presence and absence of pentagastrin.
The following methods apply to Examples 1-4 as indicated. Male Harlan Sprague Dawley® (HSD) rats were housed at 22.8±0.8° C. in a 12:12 hour light:dark cycle. All experiments were performed in the light cycle. Animals were fasted for approximately 20 hours before experimentation (examples 1, 2 and 3) or fed ad libidum (Example 4). All animals were given free access to water until the start of the experiment. The animals' tails were anesthetized with 20% benzocaine (Hurricaine, Beutlich Pharmaceutical, Waukegan, Ill.), and blood samples were collected from the tail vein. Total and active ghrelin concentrations were measured using Linco RIA kits GHRA-89HK and GHRA-88HK, respectively.
These experiments were conducted to examine whether exogenous amylin inhibits ghrelin secretion independent of pentagastrin stimulation. Fasted rats were given either a subcutaneous injection of saline or of 30 μg/kg rat amylin (FIG. 2A) or a subcutaneous injection of either saline or 125 μg/kg pentagastrin (Sigma, Lot#050K1525) (FIG. 2B) at time=0 min. […]

CSCC[C@H](NC(=O)[C@H](Cc1c[nH]c2ccccc12)NC(=O)CCNC(=O)OC(C)(C)C)C(=O)N[C@@H](CC(=O)O)C(=O)N[C@@H](Cc1ccccc1)C(N)=O [Pentagastrin, pentagastrin]
effect of pentagastrin on the ghrelin lowering effect of amylin: enhance the ghrelin lowering effect of amylin
